Measured values reported in US20170362329A1 (PELICAN THERAPEUTICS, published 2017).
These are yes or no findings as the source states them, for the method shown. Some entries that bind do so weakly or less than the wild type. Where a sequence is shown, tags or fusion partners need not be part of it.

Assays:
[1] = biological target: T1, human TNFRSF25-Fc (human, UniProt Q93038 25-199, limits assumed); assay: ELISA, binding of PTX-25 to human TNFRSF25-Fc, OD 450 nm
T1 construct: also called human TNFRSF25 fusion protein; not shown: Fc part
T1 sequence (looked up): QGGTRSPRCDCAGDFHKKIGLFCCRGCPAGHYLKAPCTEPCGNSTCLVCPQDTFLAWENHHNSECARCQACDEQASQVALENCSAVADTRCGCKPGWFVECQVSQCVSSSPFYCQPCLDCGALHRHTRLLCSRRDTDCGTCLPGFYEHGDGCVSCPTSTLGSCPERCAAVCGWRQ

[2] = biological target: T1, human TNFRSF25-Fc; assay: ELISA

binding [1]: binds | binding [2]: binds
B1: PTX-25 (human TNFRSF25-specific monoclonal antibody, pre-humanized parental) (antibody, V domains shown)
VH: EVQLVESGGGLSQPGNSLQLSCEASGFTFSNHDLNWVRQAPGKGLEWVAYISSASGLISYADAVRGRFTISRDNAKNSLFLQMNNLKSEDTAMYYCARDPPYSGLYALDFWGQGTQVTVSS
VL: QPVLTQSPSASASLSGSVKLTCTLSSELSSYTIVWYQQRPDKAPKYVMYLKSDGSHSKGDGIPDRFSGSSSGAHRYLSISNVQSEDDATYFCGAGYTLAGQYGWVFGSGTKVTVL
notes: also called Pre-humanized Parental PTX-25; human TNFRSF25-specific mAb
